Experimental findings from publication PMC12040169 (PLOS Biology, 2025) are described below.

Structures are written as SMILES. Some of the results follow. Peptide text beside a SMILES is read from it. * marks the point of attachment. Hydrocinnamoyl = O=C(CCc1ccccc1)*

The assay concerns T1, CTL2-GFP (C. trachomatis L2/434/Bu, GFP-expressing).
T1 construct: L2/434/Bu, GFP-expressing
The arrangement: species or system HeLa; Intracellular C. trachomatis growth in HeLa cells, bulk GFP fluorescence relative to DMSO. The note with it: bulk GFP, single well; 28.5 h, 10 µM; inhibitor.
Turning to `COc1cc(-c2cc(N3CCN(Cc4cccnc4)CC3)n3nccc3n2)cc(OC)c1OC` [CBK037063], the “% of control remaining” value was determined as 138.587%. As for `Cc1cc(N(C)C)nc(SCc2n[nH]c(=S)o2)n1` [CBK006887], the figure is 101.258%; as for `COCCc1noc(CC2CCN(c3ccc(Cl)c(C#N)n3)CC2)n1` [CBK304177], 77.8722%. With `O=C1CC[C@@H](NCc2cccs2)[C@H](c2cc(F)cc(F)c2)N1` [CBK283129], the “% of control remaining” value worked out at 5.068%. As for `COc1ccc2c(c1)CCC1CN(C)N=C21` (stereo not shown) [CBK010890], the figure is 111.459%. For `COCCn1nc(C(=O)N2CCCc3ccccc32)ccc1=O` [CBK305590] the value was 143.846%; for `Cc1nc(C)n(CC2CCCN(Cc3cc(=O)n4ccccc4n3)C2)n1` (stereo not shown) [CBK304135], 106.259%.

For `Cc1cn(CC(=O)N2CCC3(CCN(C(=O)Cc4c[nH]c5ccccc45)C3)C2)c(=O)[nH]c1=O` (stereo not shown) [CBK131445], the “% of control remaining” value came to 112.989%.

With `CCNC(=O)CNc1cc(C#N)ccc1C(F)(F)F` [CBK306432], the “% of control remaining” value amounted to 80.3789%.

On to `CC1(O)CCCN(C(=O)c2c[nH]nc2-c2cc3ccccc3o2)C1` (stereo not shown) [CBK305555], for which the “% of control remaining” value stood at 123.012%.

Turning to `Cc1cc(NS(=O)(=O)N2CCCCC2)no1` [CBK269947], the “% of control remaining” value was found to be 124.036%.

As for `COC(=O)c1cn([C@H]2CO[C@H]3[C@@H]2OC[C@@H]3NC(=O)Nc2ccc(OC)cc2)nn1` [CBK289500], the “% of control remaining” value came to 108.189%.

For the molecule `CCOc1ccc(S(=O)(=O)N2CCCN(CC(C)C)CC2)c2cccnc12` [CBK062758], the “% of control remaining” value stood at 94.1754%. As for `CC(=O)Nc1cccc(-c2cncc(NCc3cccc(Cl)c3)n2)c1` [CBK065236], the figure is 152.046%. Take `COc1cccc(C(=O)NCCC(=O)N2CCC3(CC2)CNC(=O)O3)c1` [CBK306803]: the “% of control remaining” value stood at 136.189%. Turning to `CN(C)C(=O)c1cccc(-c2nccnc2NCCO)c1` [CBK036582], the “% of control remaining” value came to 114.771%. For `O=c1[nH]c2ncc(-c3cccc(Br)c3)nc2n1Cc1ccccn1` [CBK065020] the value was 72.2313%; for `CSCCC(=O)N1CCC2(CCN(C(=O)Cc3c[nH]c4ccccc34)C2)C1` (stereo not shown) [CBK131442], 89.6123%. As for `COc1cc(C(=O)CCN2CCCCC2)cc(OC)c1OC` [CBK015639C], the figure is 125.163%; as for `CC(=O)Nc1ccc(CNC(=O)c2ccoc2C)cc1` [CBK305010], 136.494%.

Take `CC(=O)N1CCC[C@H]2NC(=O)CNC(=O)C3(C/C=C/C[C@H]21)CCN(CC(C)C)CC3` [CBK292088]: the “% of control remaining” value was 139.75%.

Consider `O=C(Oc1ccc(/C=N/Nc2nc(N3CCOCC3)nc(N3CCOCC3)n2)cc1)c1ccccc1` [CBK262064], for which the “% of control remaining” value is given as 112.285%. For `N#Cc1ccc(NC(=O)NCC2(N3CCOCC3)CCSC2)cc1` (stereo not shown) [CBK304546] the value was 100.856%; for `COCC1CCCN(S(=O)(=O)c2cnc3ccsc3c2)C1` (stereo not shown) [CBK306397], 122.558%. Take `Fc1ccccc1-c1nc2cnccn2c1NCc1ccco1` [CBK283681]: the “% of control remaining” value was 144.188%.

As to `CNS(=O)(=O)c1cc(C(=O)NCc2ccco2)ccc1OC` [CBK270180], the “% of control remaining” value came out at 123.798%.

As to `Cc1ccc(/C=C/C(=O)O)cc1S(=O)(=O)N(CCO)CCO` [CBK264840], the “% of control remaining” value is 100%. As for `COc1nccnc1OC1CCN(CCCC#N)CC1` [CBK084255], the figure is 111.762%; as for `COc1ccccc1CN(CCN(C)C)C(=O)Cc1c(C)[nH]c(=O)[nH]c1=O` [CBK286343], 110.717%. For `Cc1ccccc1C(=O)N1C2CCC1CC(O)(Cn1ccnc1C)C2` (stereo not shown) [CBK282740] the value was 139.375%; for `O=C(NCC(O)c1ccc2ccccc2c1)c1cnc(-c2ccccc2)c(-c2ccncc2)c1` (stereo not shown) [CBK037438], 124.398%. As for `COc1cc(OC)cc(C(=O)N2CCC3(CC2)CC(=O)c2cc(F)cc(F)c2O3)c1` [CBK168089], the figure is 103.43%; as for `O=C(Cc1csc(-c2ccc(Cl)cc2)n1)NCC1CCCN1` (stereo not shown) [CBK160982], 154.457%. With `Cc1cc(NC(=O)C2CCN(CCOc3ccccc3F)CC2)no1` [CBK305688], the “% of control remaining” value is listed as 120.745%. As for `Fc1ccc([C@@H]2COC[C@H]2NCc2ccsc2)cc1` [CBK282598], the figure is 123.192%; as for `CCc1nccn1CC(=O)NC(Cc1ccsc1)c1nccs1` (stereo not shown) [CBK285139], 71.46%; as for `CCc1ccc2c(COC(=O)c3cccnc3SC)cc(=O)oc2c1` [CBK297486], 164.907%. As for `COc1ccc(C23CCCN(C)C2C[C@@H](O)CC3)cc1OC` (stereo partly shown) [CBK016226C], the figure is 139.484%; as for `CN1CCN(c2nc3c(c(=O)n(C)c(=O)n3C)n2CCSc2nc3ccccc3o2)CC1` [CBK269452], 113.234%; as for `NS(=O)(=O)c1ccc(CNC(=S)NC2CCCC2)cc1` [CBK265802], 100.409%.

`CCNc1ncc(C(=O)N2CCOC(c3ccc(F)c(C)c3)C2)s1` (stereo not shown) [CBK306375]: the “% of control remaining” value is recorded as 90.4376%. On to `COCCCNC(NC(=O)c1ccc(C)cc1)C(Cl)(Cl)Cl` (stereo not shown) [CBK263087], for which the “% of control remaining” value is 98.1826%. Consider `COc1ccc(S(=O)(=O)NCCSCc2cccc(Cl)c2)c(Cl)c1Cl` [CBK266281], for which the “% of control remaining” value is recorded as 159.736%. For `c1ccc(CN2CCC(c3ccncc3)CC2)nc1` [CBK283505] the value was 121.084%; for `COc1cc(OC)cc(C(=O)Nc2ccc(C(=O)c3ccccc3)cc2)c1` [CBK098732], 81.161%; for `Cc1cccc2c1ncn1c(=O)n(CC(=O)Nc3cccc(Cl)c3)nc21` [CBK287815], 128.598%. As for `CCCn1c(SCC(=O)N2CCOCC2)nc2cc(Cl)ccc2c1=O` [CBK306482], the figure is 118.75%; as for `S=C(NNC(=S)Nc1ccc(Cl)c(Cl)c1)Nc1cccnc1` [CBK268483], 112.693%; as for `O=C(c1ncc(F)cc1F)N1CCCCC1CN1CCOCC1` (stereo not shown) [CBK305482], 124.943%. For `CCN(CC)CCN1CCN(c2cc(-c3ccc(OC(F)(F)F)cc3)ncn2)CC1` [CBK037756] the value was 225.436%.

In the case of `O=C(CCC(=O)c1ccc2c(c1)OCCO2)OCC(=O)c1ccc(Cl)c(Cl)c1` [CBK264825], the “% of control remaining” value is recorded as 100%.

Take `O=C(Cn1ccc(=O)[nH]c1=O)NCC1(Sc2ccccc2)CC1` [CBK306242]: the “% of control remaining” value is 123.453%. As for `O=C(O)CNC(=O)CNC(=O)CCc1ccccc1` [CBK286874] (Hydrocinnamoyl-Gly-Gly-OH), the figure is 132.323%; as for `COc1nc2ccn(CCN3C(=O)CCC3=O)c(=O)c2cc1C#N` [CBK307422], 115.809%.

Take `CCc1ccc(CN(C(=O)c2cc(OC)c(OC)c(OC)c2)C2CCS(=O)(=O)C2)cc1` (stereo not shown) [CBK293961]: the “% of control remaining” value amounted to 150.391%. As for `O=S(=O)(CC(F)(F)F)N(c1ccccc1)C1CCNCC1` [CBK165093T], the figure is 111.415%. On to `COc1ccc(C(=O)N(C)C2CCN(C)C2)cc1Nc1cncc(-c2cc3ccccc3[nH]2)n1` (stereo not shown) [CBK155260T], for which the “% of control remaining” value is listed as 90.9545%.

As for `Nc1ncc(-c2ccsc2)nc1NCC1CCOCC1` [CBK063848], the “% of control remaining” value was found to be 177.707%. As for `CN1C(=O)c2ccccc2C(=O)[C@@]2(C)CN(C(=O)C3CC3)C[C@@H]12` [CBK284569], the figure is 127.03%; as for `Cc1ccc(S(=O)(=O)Nc2ccnc(Cl)n2)cc1` [CBK067661], 121.713%. For `CCNC(=O)NC[C@H]1C[C@@H]2CCN1C[C@@H]2c1cc(-c2ccccc2OC)nn1C` [CBK289105] the value was 98.6906%; for `CCCCC(NS(=O)(=O)Cc1ccccc1)C(=O)O` (stereo not shown) [CBK286798], 120.627%; for `CCN(CC)CCCNc1oc(-c2ccc(Cl)cc2)nc1C#N` [CBK265746], 140.677%. As for `c1ccc2c3c([nH]c2c1)C1(CCN(CCC2CCCCC2)C1)OCC3` (stereo not shown) [CBK061789], the figure is 35.5479%; as for `CCN(C(=O)Cn1cccc(OC)c1=O)C1CCOC(C)(C)C1` (stereo not shown) [CBK306879], 90.4421%. Turning to `O=C(O)CNC(=O)Cn1ccc2ccc(OCc3ccccc3)cc21` [CBK286644], the “% of control remaining” value came out at 120.18%. For `Nc1cc(-c2ccco2)nn(Cc2c(F)cccc2Cl)c1=O` [CBK282881], the “% of control remaining” value was 82.6889%. As for `O=C(NCc1ccc(OC(F)(F)F)cc1)c1cnoc1-c1ccc(F)cc1` [CBK154952], the figure is 126.682%. For the molecule `CCn1c(C(CC(C)C)NC(=O)C2CC2)nc2cccnc21` (stereo not shown) [CBK283736], the “% of control remaining” value is 89.076%. Regarding `COc1cc(CNc2cccc(-c3ccsc3)n2)cc(OC)c1` [CBK037592], the “% of control remaining” value is given as 108.406%. With `O=C(c1ccco1)N1CCN(c2ncnc3scc(-c4cccs4)c23)CC1` [CBK267208], the “% of control remaining” value was 102.3%. For `CCn1c(SCC(=O)Nc2cccc([N+](=O)[O-])c2)nnc1-c1cc(Br)ccc1O` [CBK267980] the value was 128.031%.

Regarding `Cc1cc(=O)[nH]c(-n2nc(C)cc2NC(=O)c2ccccc2)n1` [CBK287653], the “% of control remaining” value stood at 118.482%.

`Cc1nn(CC(=O)NCC2CC2)c(=O)c2cc3sccc3n12` [CBK284025]: the “% of control remaining” value stood at 130.147%. For the molecule `COc1ccccc1CN(Cc1cccnc1)C(=O)CCC(F)(F)F` [CBK307713], the “% of control remaining” value came out at 141.749%. For `FC(F)c1cc([C@@H]2CN(CC3CCOC3)C[C@H]2c2ccccc2)n[nH]1` (stereo partly shown) [CBK285430] the value was 105.058%; for `O=S(=O)(c1ccc2ccccc2c1)N1CCN(C2CCC(c3ccccc3)CC2)CC1` (stereo not shown) [CBK264152], 100%. As for `O=C(O)CCc1ccc(-c2ccc(Cl)cc2)[nH]1` [CBK264781], the figure is 99.428%. For `O=C(Cc1ccc(F)cc1)Nc1cccc(-c2noc(-c3ccc(F)cc3)n2)c1` [CBK299821] the value was 108.563%.
